Measured values from patent US20080064729A1, “Phenethylamide derivatives with kinase inhibitory activity” (Millennium Pharmaceuticals, Inc., priority 2006, published 2008).
Some entries share one result that the patent states for a list of compounds. Some compounds share one range, which may span the group rather than tell each member.

By UniProt entry, the sequences of proteins in these tests, tags left out.
UniProt P15056, whole entry, stated change not applied: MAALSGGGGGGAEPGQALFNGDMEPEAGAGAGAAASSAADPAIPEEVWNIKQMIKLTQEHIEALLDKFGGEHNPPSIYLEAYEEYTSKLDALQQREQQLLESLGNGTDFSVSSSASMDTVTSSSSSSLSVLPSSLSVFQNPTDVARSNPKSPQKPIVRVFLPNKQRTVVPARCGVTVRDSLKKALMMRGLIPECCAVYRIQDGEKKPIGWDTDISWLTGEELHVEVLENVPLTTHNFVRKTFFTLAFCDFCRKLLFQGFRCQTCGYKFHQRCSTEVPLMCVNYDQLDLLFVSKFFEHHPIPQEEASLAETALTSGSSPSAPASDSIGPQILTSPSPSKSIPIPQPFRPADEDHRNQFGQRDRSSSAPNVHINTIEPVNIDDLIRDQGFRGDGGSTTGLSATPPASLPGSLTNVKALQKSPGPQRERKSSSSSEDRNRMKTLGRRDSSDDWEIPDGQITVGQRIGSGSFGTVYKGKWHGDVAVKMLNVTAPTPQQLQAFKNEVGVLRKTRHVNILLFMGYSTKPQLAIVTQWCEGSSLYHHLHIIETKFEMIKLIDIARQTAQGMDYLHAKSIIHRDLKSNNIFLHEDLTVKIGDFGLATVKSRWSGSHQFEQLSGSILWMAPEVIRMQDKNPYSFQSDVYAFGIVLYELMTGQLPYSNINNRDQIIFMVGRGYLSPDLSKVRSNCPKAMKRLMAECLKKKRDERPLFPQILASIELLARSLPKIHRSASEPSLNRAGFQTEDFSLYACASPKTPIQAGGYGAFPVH

What follows are molecules tested against T1, B-Raf (V599E or Wild Type) (Homo sapiens, UniProt P15056) (assay: B-Raf Flash Plate Assay). Details: 33P ATP, 0.5 μM ATP, 1 μM Peptide 118, V599E or Wild Type not specified.
T1 construct: Enzymatically active wild-type B-Raf was purchased from Upstate (cat# 14-530); Enzymatically active mutant B-Raf(V599E) was purchased from Upstate (cat# 14-557)
Format: biochemical
`O=C(NCCc1cccc(Oc2ccnc(CNC3=NCCN3)c2)c1)c1cccc(C(F)(F)F)c1` [Compound I-2, N-{2-[3-({2-[(4,5-dihydro-1H-imidazol-2-ylamino)methyl]pyridin-4-yl}-oxy)phenyl]ethyl}-3-(trifluoromethyl)benzamide] showed an IC50 of at most 1000 nM.
Molecule `CNC(=O)c1cc(Oc2cccc(CCNC(=O)c3cc(Cl)cc(Cl)c3)c2)ccn1` [Compound I-8, 4-(3-{2-[(3,5-dichlorobenzoyl)amino]ethyl}phenoxy)-N-methylpyridine-2-carboxamide] has an IC50 of at most 1000 nM.
In the case of `CNC(=O)c1cc(Oc2cccc(CCNC(=O)c3ccc(Cl)c(C(F)(F)F)c3)c2)ccn1` [Compound I-12, 4-[3-(2-{[4-chloro-3-(trifluoromethyl)benzoyl]amino}ethyl)phenoxy]-N-methylpyridine-2-carboxamide], the IC50 is reported as at most 1000 nM.
In the case of `CNC(=O)c1cc(Oc2cccc(CCNC(=O)c3cc(C(F)(F)F)cc(Cl)c3F)c2)ccn1` [Compound I-13, 4-[3-(2-{[3-chloro-2-fluoro-5-(trifluoromethyl)benzoyl]amino}ethyl)phenoxy]-N-methylpyridine-2-carboxamide], the IC50 is reported as at most 1000 nM.
`CNC(=O)c1cc(Oc2cccc(CCNC(=O)c3ccc(OC)c(Cl)c3)c2)ccn1` [Compound I-15, 4-(3-{2-[(3-chloro-4-methoxybenzoyl)amino]ethyl}phenoxy)-N-methylpyridine-2-carboxamide] showed an IC50 of at most 1000 nM.
For `CNC(=O)c1cc(Oc2cccc(CCNC(=O)c3ccnc4ccccc34)c2)ccn1` [Compound I-16, N-{2-[3-({2-[(methylamino)carbonyl]pyridin-4-yl}oxy)phenyl]ethyl}quinoline-4-carboxamide], the IC50 was at most 1000 nM.
Molecule `CNC(=O)c1cc(Oc2cccc(CCNC(=O)c3ccc(OC)c([N+](=O)[O-])c3)c2)ccn1` [Compound I-20, 4-(3-{2-[(4-methoxy-3-nitrobenzoyl)amino]ethyl}phenoxy)-N-methylpyridine-2-carboxamide] has an IC50 of at most 1000 nM.
`CNC(=O)c1cc(Oc2cccc(CCNC(=O)c3cc(S(=O)(=O)N(C)C)oc3C)c2)ccn1` [Compound I-28, 4-{3-[2-({5-[(dimethylamino)sulfonyl]-2-methyl-3-furoyl}amino)ethyl]phenoxy}-N-methylpyridine-2-carboxamide] gave an IC50 of at most 1000 nM.
Work on `CNC(=O)c1cc(Oc2cccc(CCNC(=O)c3cc(C)oc3C(F)(F)F)c2)ccn1` [Compound I-29, N-methyl-4-[3-(2-{[5-methyl-2-(trifluoromethyl)-3-furoyl]amino}ethyl)-phenoxy]pyridine-2-carboxamide] yielded an IC50 of at most 1000 nM.
`CNC(=O)c1cc(Oc2cccc(CCNC(=O)c3ccccc3Sc3ccccc3C#N)c2)ccn1` [Compound I-31, 4-{3-[2-({2-[(2-cyanophenyl)sulfanyl]benzoyl}amino)ethyl]phenoxy}-N-methylpyridine-2-carboxamide] showed an IC50 of at most 1000 nM.
For `CNC(=O)c1cc(Oc2cccc(CCNC(=O)c3cccc(Br)c3)c2)ccn1` [Compound I-32, 4-(3-{2-[(3-bromobenzoyl)amino]ethyl}phenoxy)-N-methylpyridine-2-carboxamide], the IC50 was at most 1000 nM.
`CNC(=O)c1cc(Oc2cccc(CCNC(=O)c3cn(S(=O)(=O)c4ccccc4)c4ccccc34)c2)ccn1` [Compound I-38, N-{2-[3-({2-[(methylamino)carbonyl]pyridin-4-yl}oxy)phenyl]ethyl}-1-(phenylsulfonyl)-1H-indole-3-carboxamide] was tested, and the IC50 was at most 1000 nM.
For `CNC(=O)c1cc(Oc2cccc(CCNC(=O)c3ccc(F)c(C(F)(F)F)c3)c2)ccn1` [Compound I-44, 4-[3-(2-{[4-fluoro-3-(trifluoromethyl)benzoyl]amino}ethyl)phenoxy]-N-methylpyridine-2-carboxamide], the IC50 was at most 1000 nM.
`CC(C)(C)OC(=O)NCc1cc(Oc2cccc(CCNC(=O)c3cccc(C(F)(F)F)c3)c2)ccn1` [Compound I-50, tert-butyl ({4-[3-(2-{[3-(trifluoromethyl)benzoyl]amino}ethyl)phenoxy]pyridin-2-yl}methyl)carbamate] gave an IC50 of at most 1000 nM.
`CNC(=O)c1cc(Oc2cccc(CCNC(=O)c3ccc(C)c4ccccc34)c2)ccn1` [Compound I-53, N-methyl-4-(3-{2-[(4-methyl-1-naphthoyl)amino]ethyl}phenoxy)pyridine-2-carboxamide] showed an IC50 of at most 1000 nM.
Work on `CNC(=O)c1cc(Oc2cccc(CCNC(=O)c3csc(Cl)c3OC)c2)ccn1` [Compound I-54, 4-[3-(2-{[(5-chloro-4-methoxy-3-thienyl)carbonyl]amino}ethyl)phenoxy]-N-methylpyridine-2-carboxamide] yielded an IC50 of at most 1000 nM.
`CNC(=O)c1cc(Oc2cccc(CCNC(=O)c3cc(Br)cc4c3OCC4)c2)ccn1` [Compound I-55, 4-[3-(2-{[(5-bromo-2,3-dihydro-1-benzofuran-7-yl)carbonyl]amino}ethyl)-phenoxy]-N-methylpyridine-2-carboxamide] was tested, and the IC50 was at most 1000 nM.
`O=C(NCCc1cccc(Oc2ccnc(C3=NCCN3)c2)c1)c1cccc(C(F)(F)F)c1` [Compound I-57, N-[2-(3-{[2-(4,5-dihydro-1H-imidazol-2-yl)pyridin-4-yl]oxy}phenyl)ethyl]-3-(trifluoromethyl)benzamide] gave an IC50 of at most 1000 nM.

Same assay, conditions: tested at a concentration of 10 μM
With `CNC(=O)c1cc(Oc2cccc(CCNC(=O)c3c(C(F)(F)F)nn(C)c3Cl)c2)ccn1` [Compound I-3, 4-{3-[2-({[5-chloro-1-methyl-3-(trifluoromethyl)-1H-pyrazol-4-yl]carbonyl}-amino)ethyl]phenoxy}-N-methylpyridine-2-carboxamide] the inhibition was 40-68%.
In the case of `CNC(=O)c1cc(Oc2cccc(CCNC(=O)c3ccc4c(c3)S(=O)(=O)c3ccccc3C4=O)c2)ccn1` [Compound I-10, 4-[3-(2-{[(10,10-dioxido-9-oxo-9H-thioxanthen-3-yl)carbonyl]amino}ethyl)-phenoxy]-N-methylpyridine-2-carboxamide], the inhibition is reported as 40-68%.
With `CNC(=O)c1cc(Oc2cccc(CCNC(=O)c3ccc(-n4cccn4)cc3)c2)ccn1` [Compound I-11, N-methyl-4-[3-(2-{[4-(1H-pyrazol-1-yl)benzoyl]amino}ethyl)phenoxy]pyridine-2-carboxamide] the inhibition was 40-68%.
With `CNC(=O)c1cc(Oc2cccc(CCNC(=O)c3ccc(Cl)cc3OC)c2)ccn1` [Compound I-14, 4-(3-{2-[(4-chloro-2-methoxybenzoyl)amino]ethyl}phenoxy)-N-methylpyridine-2-carboxamide] the inhibition was 40-68%.
In the case of `CNC(=O)c1cc(Oc2cccc(CCNC(=O)c3cccnc3Oc3ccccc3)c2)ccn1` [Compound I-17, N-methyl-4-[3-(2-{[(2-phenoxypyridin-3-yl)carbonyl]amino}ethyl)-phenoxy]pyridine-2-carboxamide], the inhibition is reported as 40-68%.
In the case of `CNC(=O)c1cc(Oc2cccc(CCNC(=O)c3ccc(OC)cc3)c2)ccn1` [Compound I-19, 4-(3-{2-[(4-methoxybenzoyl)amino]ethyl}phenoxy)-N-methylpyridine-2-carboxamide], the inhibition is reported as 40-68%.
`CNC(=O)c1cc(Oc2cccc(CCNC(=O)c3ccc(S(N)(=O)=O)cc3)c2)ccn1` [Compound I-22, 4-[3-(2-{[4-(aminosulfonyl)benzoyl]amino}ethyl)phenoxy]-N-methylpyridine-2-carboxamide] was tested, and the inhibition was 40-68%.
In the case of `CNC(=O)c1cc(Oc2cccc(CCNC(=O)c3ccc(OC(F)(F)F)cc3)c2)ccn1` [Compound I-24, N-methyl-4-[3-(2-{[4-(trifluoromethoxy)benzoyl]amino}ethyl)phenoxy]pyridine-2-carboxamide], the inhibition is reported as 40-68%.
`CNC(=O)c1cc(Oc2cccc(CCNC(=O)c3cccc(OC)c3OC)c2)ccn1` [Compound I-25, 4-(3-{2-[(2,3-dimethoxybenzoyl)amino]ethyl}phenoxy)-N-methylpyridine-2-carboxamide] was tested, and the inhibition was 40-68%.
`CNC(=O)c1cc(Oc2cccc(CCNC(=O)c3sc(-c4ccccn4)nc3C)c2)ccn1` [Compound I-33, N-methyl-4-[3-(2-{[(4-methyl-2-pyridin-2-yl-1,3-thiazol-5-yl)carbonyl]-amino}ethyl)phenoxy]pyridine-2-carboxamide] was tested, and the inhibition was 40-68%.
With `CNC(=O)c1cc(Oc2cccc(CCNC(=O)c3ccc(Cl)cc3F)c2)ccn1` [Compound I-35, 4-(3-{2-[(4-chloro-2-fluorobenzoyl)amino]ethyl}phenoxy)-N-methylpyridine-2-carboxamide] the inhibition was 40-68%.
With `CCn1cc(C(=O)NCCc2cccc(Oc3ccnc(C(=O)NC)c3)c2)c(=O)c2ccc(C)nc21` [Compound I-36, 1-ethyl-7-methyl-N-{2-[3-({2-[(methylamino)carbonyl]pyridin-4-yl}oxy)phenyl]-ethyl}-4-oxo-1,4-dihydro-1,8-naphthyridine-3-carboxamide] the inhibition was 40-68%.
`CNC(=O)c1cc(Oc2cccc(CCNC(=O)c3cc(OC)c(OC)cc3Cl)c2)ccn1` [Compound I-37, 4-(3-{2-[(2-chloro-4,5-dimethoxybenzoyl)amino]ethyl}phenoxy)-N-methylpyridine-2-carboxamide] was tested, and the inhibition was 40-68%.
In the case of `CNC(=O)c1cc(Oc2cccc(CCNC(=O)c3ccc(-c4ccc(Cl)c(Cl)c4)cc3)c2)ccn1` [Compound I-46, 4-[3-(2-{[(3′,4′-dichlorobiphenyl-4-yl)carbonyl]amino}ethyl)phenoxy]-N-methylpyridine-2-carboxamide], the inhibition is reported as 40-68%.
With `CNC(=O)c1cc(Oc2cccc(CCNC(=O)c3cccc(F)c3F)c2)ccn1` [Compound I-47, 4-(3-{2-[(2,3-difluorobenzoyl)amino]ethyl}phenoxy)-N-methylpyridine-2-carboxamide] the inhibition was 40-68%.
With `CNC(=O)c1cc(Oc2cccc(CCNC(=O)c3cccc(C)c3Br)c2)ccn1` [Compound I-49, 4-(3-{2-[(2-bromo-3-methylbenzoyl)amino]ethyl}phenoxy)-N-methylpyridine-2-carboxamide] the inhibition was 40-68%.
In the case of `CCOc1cccc(C(=O)NCCc2cccc(Oc3ccnc(C(=O)NC)c3)c2)c1` [Compound I-56, 4-(3-{2-[(3-ethoxybenzoyl)amino]ethyl}phenoxy)-N-methylpyridine-2-carboxamide], the inhibition is reported as 40-68%.
